# Test results: patent publication US10041905B2, “Electrochemically active agents for pH modulation in biological buffers” (Robert Bosch GmbH, priority 2015, dated 2018)
# Assay: Electrochemical modulation of pH at ITO working electrode, monitored by GFP fluorescence intensity
# Type: physicochemical
# Conditions: diluted phosphate buffer pH 7.4 with 0.1 M Na2SO4
smiles,measurement,setting,value
"Cc1cc(O)ccc1O [2-methyl-1,4-dihydroquinone]",solution pH after current-driven oxidation,50 microamps for 30 second,5.5
same,time for pH to recover to neutral value after current was turned off,,≤ 50 seconds
